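Inducible HEK293 cells carrying the human D1 dopamine receptor, tracking calcium signal over about 180 seconds after a near-maximal dopamine challenge, in antagonist mode. Compounds were titrated in a series from about 0.013 to 42 µM. Potency is the fitted concentration giving half of the maximal effect; a lower value means a more potent compound. Calls follow curve class and fitted AC50 as an activity score: 40–100 is active, 1–39 is inconclusive, 0 is inactive.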

By UniProt entry, the sequences of proteins in these tests, tags left out.
UniProt P21728, whole entry, target on record: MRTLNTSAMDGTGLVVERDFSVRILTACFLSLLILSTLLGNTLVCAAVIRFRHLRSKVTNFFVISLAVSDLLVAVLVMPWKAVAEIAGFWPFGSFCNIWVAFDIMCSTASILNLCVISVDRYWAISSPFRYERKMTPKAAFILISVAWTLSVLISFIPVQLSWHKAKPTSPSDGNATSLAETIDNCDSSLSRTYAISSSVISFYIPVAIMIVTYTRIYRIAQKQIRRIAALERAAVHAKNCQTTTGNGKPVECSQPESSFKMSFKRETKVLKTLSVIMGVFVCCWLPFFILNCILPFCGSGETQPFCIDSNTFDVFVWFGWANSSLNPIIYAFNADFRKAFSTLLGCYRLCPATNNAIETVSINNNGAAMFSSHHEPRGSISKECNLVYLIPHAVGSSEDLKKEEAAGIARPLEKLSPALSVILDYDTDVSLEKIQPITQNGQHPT

Values are in µM. All entries here are filed as inconclusive. Only part of the assay is shown, chiefly results filed as inconclusive. A potency from a partial, single-point or poor curve is only a rough figure. The first word of each remark tells which way the curve ran; it can be opposite to the aim of the assay. Activity scores are not listed here.

| structure | Potency (µM) | curve |
|---|---|---|
| `CCNC(=O)N1CCN(CCCC(c2ccc(F)cc2)c2ccc(F)cc2)CC1` | 1.778 | inhibitor, partial curve, poor fit |
| `CCCCCCCC/C=C\CCCCCCCC(=O)NCCO` | 31.62 | activator, single point |
| `CC(C)(C=O)Cc1cc(C(C)(C)C)c(O)c(C(C)(C)C)c1` | 3.548 | activator, partial curve |
| `CCN(CCCl)Cc1ccccc1Br` | 11.22 | activator, single point |
| `CCCOC(=O)c1c(-c2ccccc2)nc(CC)c(C(=O)SCC)c1CCC` | 11.22 | activator, partial curve, poor fit |
| `COc1ccc2c(c1)CCC1C2CC[C@@]2(C)C1CC[C@@H]2NCCCCCCN1C(=O)CCC1=O` (some centres undefined) | 10 | inhibitor, partial curve, poor fit |
| `NC(N)=N/N=C/c1c(Cl)cccc1Cl` | 14.13 | inhibitor, single point |
| `Cc1nc2sccn2c(=O)c1CCN1CCC(=C(c2ccccc2)c2ccc(F)cc2)CC1` | 7.943 | inhibitor, partial curve, poor fit |
| `c1cc(CN2CCCCC2)cc(OCCCNc2nc3ccccc3s2)c1` | 31.62 | inhibitor, single point |
| `NC(N)=NC(=O)c1nc(Cl)c(N2CCCCCC2)nc1N` | 31.62 | activator, single point |

Once more, the final 2:

| structure | Potency (µM) | curve |
|---|---|---|
| `c1cc(CN2CCCCC2)cc(OCCCNc2nc3ccccc3s2)c1` | 31.62 | inhibitor, single point |
| `NC(N)=NC(=O)c1nc(Cl)c(N2CCCCCC2)nc1N` | 31.62 | activator, single point |

Data taken from PubChem BioAssay AID488983, deposited by NCATS (2010).